Reference: patent US11331294B2, “Benzoquinone derivative E3330 in combination with chemotherapeutic agents for the treatment of bladder cancer” (Indiana University Research and Technology Corporation, priority 2007, dated 2022)
Some entries share one result that the patent states for a list of compounds.

Test system: RP-B-01, RP-B-02 and T24 cell lines
Experiment: Alamar blue combination study with cisplatin
Assay type: cell-based, human
Details: at the doses used in combination treatment, all cell lines
Protocol: FIGS. 30A-30C. […] RP-B-01, RP-B-02, and T24 cell lines were treated with increasing concentrations of cisplatin in combination with a single dose of either APX2009 or APX2014 as indicated (n=3±SE). Cell proliferation was normalized to Saline control and expressed as Fold Change. Combination index (CI) values calculated with Compusyn for combination of APX inhibitors and cisplatin. CI values indicated mainly additivity (0.95-1.2) to synergy (0.8-0.94).
Bladder cancer cell lines (BLCAb001 (RP-B-01) and BLCAb002 (RP-B-02) maintained in RPMI growth medium with 10% FBS were plated at 4,000 cells/well in poly-D-lysine treated 96-well clear bottom black plates and grown overnight in 5% CO2 at 37° C. Cells in monolayer were then treated with increasing concentrations of redox-specific inhibitor APX3330, APX2014 or APX2009 and serially diluted 1:2 in a 5-point dose scheme. For combination studies, cells were treated with both cisplatin and APX compounds to determine efficacy. After 72 hours, fresh RPMI medium with 5% FBS was exchanged, and a fluorescent metabolic indicator, Alamar Blue was added to each well at 10% final concentration. After a 4 hour incubation, plates were read on a Synergy H4 (Bio-Tek) plate reader. […]
APE1/Ref-1 inhibition enhances cisplatin's therapeutic effect. […] Cell proliferation was assessed using Alamar blue 72 h after drug treatment.

Structure (SMILES) | reduction in bladder cancer cell proliferation, compound alone
CCC/C(=C\C1=C(OC)C(=O)c2ccccc2C1=O)C(=O)N(CC)CC [APX2009, [(2E)-2-[(3-methoxy-1,4-dioxo-1,4-dihydronaphthalen-2-yl)methylidene]-N,N-diethylpentanamide]] | 10-30%
CCC/C(=C\C1=C(OC)C(=O)c2ccccc2C1=O)C(=O)NOC [APX2014] | 10-30%
